Like-named read-outs stand apart in the source and are kept apart here. No constants are given. Whether binding was seen depends on the method and setting. In cells and extracts the contact can be indirect. Some results given as binding are weak or reduced against the parent protein; the word gives no strength. For some assays here: Where a sequence is shown, tags or fusion partners need not be part of it. One block for each molecule: values may come before it.
Tests used:
Assay in all cases: co-IP
GCN1-3xFlag (human) [1] = target: GCN1-3xFlag (human) (UniProt Q92616)
[2] = target: R2312A GCN1-3xFlag (human) (UniProt Q92616)
3xFlag-tagged RNF14 = target: T1, 3xFlag-tagged RNF14 (UniProt Q9UBS8)
T1 sequence: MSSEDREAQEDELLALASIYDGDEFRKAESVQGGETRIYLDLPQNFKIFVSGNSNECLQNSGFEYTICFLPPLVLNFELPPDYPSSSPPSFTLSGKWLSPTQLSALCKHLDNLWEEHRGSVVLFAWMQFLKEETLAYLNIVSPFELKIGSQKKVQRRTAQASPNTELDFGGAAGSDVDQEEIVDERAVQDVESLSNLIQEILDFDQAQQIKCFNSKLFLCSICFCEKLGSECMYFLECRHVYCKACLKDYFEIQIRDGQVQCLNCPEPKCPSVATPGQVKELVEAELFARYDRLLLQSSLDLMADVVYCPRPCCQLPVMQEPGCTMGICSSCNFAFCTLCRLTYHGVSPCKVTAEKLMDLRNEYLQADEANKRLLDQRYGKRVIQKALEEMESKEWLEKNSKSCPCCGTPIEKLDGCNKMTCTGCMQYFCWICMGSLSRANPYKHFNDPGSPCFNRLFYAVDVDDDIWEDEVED

The chains behind the UniProt entries cited, without tags or fusion partners. Where a name states a change or a piece, a line headed by the entry shows the natural chain unless it says otherwise.
UniProt Q92616: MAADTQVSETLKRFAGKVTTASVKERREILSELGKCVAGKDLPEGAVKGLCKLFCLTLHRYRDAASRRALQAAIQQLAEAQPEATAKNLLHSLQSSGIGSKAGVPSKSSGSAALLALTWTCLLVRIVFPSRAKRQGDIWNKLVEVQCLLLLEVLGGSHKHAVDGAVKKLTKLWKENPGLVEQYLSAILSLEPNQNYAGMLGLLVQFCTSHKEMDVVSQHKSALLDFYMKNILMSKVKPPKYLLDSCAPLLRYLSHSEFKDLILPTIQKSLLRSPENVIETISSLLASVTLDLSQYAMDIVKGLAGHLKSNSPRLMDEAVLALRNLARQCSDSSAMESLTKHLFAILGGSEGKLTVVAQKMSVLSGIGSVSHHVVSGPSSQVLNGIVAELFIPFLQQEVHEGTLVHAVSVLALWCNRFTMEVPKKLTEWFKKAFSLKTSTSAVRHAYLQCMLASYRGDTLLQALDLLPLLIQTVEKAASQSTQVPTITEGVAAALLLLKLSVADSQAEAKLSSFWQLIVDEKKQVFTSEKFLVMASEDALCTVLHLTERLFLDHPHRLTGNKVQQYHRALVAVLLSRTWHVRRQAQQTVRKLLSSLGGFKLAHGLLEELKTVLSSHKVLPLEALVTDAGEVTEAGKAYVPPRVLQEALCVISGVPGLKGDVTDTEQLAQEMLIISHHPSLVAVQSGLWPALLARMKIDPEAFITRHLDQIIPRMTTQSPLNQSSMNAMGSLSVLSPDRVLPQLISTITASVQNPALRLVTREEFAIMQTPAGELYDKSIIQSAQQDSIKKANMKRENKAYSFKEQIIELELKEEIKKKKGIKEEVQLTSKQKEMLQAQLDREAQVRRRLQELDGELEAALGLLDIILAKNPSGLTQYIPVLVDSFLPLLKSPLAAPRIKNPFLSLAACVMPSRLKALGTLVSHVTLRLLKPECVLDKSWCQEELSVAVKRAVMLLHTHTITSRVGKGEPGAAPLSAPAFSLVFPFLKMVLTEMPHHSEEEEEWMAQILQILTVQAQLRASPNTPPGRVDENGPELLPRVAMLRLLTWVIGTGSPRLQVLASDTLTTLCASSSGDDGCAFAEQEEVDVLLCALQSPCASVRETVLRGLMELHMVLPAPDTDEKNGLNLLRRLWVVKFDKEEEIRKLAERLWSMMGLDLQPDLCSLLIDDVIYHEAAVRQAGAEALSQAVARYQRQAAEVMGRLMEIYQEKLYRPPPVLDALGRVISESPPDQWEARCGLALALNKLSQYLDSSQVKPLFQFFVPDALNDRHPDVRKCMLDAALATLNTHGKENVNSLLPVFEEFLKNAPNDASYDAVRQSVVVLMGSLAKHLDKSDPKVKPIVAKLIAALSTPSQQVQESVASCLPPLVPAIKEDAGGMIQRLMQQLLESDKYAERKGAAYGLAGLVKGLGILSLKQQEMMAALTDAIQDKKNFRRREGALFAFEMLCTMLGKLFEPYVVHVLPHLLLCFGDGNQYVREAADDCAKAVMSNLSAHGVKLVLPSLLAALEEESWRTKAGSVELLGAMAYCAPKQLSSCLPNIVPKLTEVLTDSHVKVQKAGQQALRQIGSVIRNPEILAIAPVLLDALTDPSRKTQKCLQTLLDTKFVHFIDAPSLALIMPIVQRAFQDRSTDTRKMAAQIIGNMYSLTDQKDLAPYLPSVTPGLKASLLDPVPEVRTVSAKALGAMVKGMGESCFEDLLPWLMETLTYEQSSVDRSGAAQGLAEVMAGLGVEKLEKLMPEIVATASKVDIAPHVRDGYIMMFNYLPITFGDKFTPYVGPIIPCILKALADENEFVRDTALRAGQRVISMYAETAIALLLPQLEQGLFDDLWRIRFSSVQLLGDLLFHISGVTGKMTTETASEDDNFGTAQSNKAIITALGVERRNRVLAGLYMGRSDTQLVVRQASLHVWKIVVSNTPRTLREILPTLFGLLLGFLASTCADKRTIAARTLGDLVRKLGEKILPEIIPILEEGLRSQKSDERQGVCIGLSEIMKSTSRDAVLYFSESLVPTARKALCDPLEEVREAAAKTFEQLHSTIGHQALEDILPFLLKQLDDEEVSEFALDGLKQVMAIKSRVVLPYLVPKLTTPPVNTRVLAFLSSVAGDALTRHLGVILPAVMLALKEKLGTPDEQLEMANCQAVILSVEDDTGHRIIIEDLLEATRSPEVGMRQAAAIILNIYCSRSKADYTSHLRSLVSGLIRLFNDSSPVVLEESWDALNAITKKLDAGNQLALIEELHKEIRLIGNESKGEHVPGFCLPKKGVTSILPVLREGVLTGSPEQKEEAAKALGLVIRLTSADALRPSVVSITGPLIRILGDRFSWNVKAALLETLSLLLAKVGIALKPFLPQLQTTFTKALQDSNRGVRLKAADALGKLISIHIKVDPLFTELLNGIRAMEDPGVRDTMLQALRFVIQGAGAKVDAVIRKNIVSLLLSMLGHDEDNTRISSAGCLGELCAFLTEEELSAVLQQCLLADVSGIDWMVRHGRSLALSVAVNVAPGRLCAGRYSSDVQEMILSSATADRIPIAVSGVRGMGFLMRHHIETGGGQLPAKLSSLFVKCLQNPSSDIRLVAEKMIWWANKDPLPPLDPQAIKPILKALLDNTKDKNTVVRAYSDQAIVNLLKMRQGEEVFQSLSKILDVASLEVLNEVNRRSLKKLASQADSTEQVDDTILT
UniProt Q9P2K8: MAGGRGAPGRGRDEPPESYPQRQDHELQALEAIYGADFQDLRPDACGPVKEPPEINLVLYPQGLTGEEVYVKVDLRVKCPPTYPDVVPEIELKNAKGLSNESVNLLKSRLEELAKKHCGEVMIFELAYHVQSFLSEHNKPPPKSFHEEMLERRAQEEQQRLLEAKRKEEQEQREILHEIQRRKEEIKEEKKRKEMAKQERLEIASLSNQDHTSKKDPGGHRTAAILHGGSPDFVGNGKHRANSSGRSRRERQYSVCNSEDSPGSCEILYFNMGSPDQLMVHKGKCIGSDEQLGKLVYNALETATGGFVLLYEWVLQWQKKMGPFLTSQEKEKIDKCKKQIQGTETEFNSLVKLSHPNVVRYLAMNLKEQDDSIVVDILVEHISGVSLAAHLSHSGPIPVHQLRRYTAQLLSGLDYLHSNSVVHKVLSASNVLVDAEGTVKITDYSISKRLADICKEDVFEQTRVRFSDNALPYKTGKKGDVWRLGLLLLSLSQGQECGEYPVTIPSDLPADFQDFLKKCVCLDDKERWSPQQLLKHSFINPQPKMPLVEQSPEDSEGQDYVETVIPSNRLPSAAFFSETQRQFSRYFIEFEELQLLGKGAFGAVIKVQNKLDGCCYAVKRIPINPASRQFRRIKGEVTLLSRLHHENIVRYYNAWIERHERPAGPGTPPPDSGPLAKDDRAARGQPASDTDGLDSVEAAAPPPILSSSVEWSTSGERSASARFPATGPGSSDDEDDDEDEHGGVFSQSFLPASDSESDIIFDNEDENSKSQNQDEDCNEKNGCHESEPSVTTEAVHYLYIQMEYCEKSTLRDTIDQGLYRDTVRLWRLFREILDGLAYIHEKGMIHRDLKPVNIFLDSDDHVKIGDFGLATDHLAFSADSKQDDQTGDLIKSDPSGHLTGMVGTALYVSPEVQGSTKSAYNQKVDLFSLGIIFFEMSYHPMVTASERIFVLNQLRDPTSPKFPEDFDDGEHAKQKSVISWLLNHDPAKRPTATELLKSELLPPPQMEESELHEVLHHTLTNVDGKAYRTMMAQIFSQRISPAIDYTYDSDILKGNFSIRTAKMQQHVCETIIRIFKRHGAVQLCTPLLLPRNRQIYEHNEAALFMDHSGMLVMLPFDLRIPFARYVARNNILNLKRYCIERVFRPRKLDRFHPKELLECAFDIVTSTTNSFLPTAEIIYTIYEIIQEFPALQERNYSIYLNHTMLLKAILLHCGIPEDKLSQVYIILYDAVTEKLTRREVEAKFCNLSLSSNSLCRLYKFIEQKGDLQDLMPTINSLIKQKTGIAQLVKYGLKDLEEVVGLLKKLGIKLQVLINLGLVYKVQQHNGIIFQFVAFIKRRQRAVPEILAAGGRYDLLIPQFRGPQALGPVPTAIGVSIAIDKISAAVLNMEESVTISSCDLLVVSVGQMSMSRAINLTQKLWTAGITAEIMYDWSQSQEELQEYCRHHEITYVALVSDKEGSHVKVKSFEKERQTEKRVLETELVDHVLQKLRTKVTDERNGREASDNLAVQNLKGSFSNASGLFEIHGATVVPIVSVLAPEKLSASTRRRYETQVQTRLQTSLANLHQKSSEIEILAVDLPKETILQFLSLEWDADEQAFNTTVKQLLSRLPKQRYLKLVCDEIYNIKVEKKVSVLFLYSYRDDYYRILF

GCN1-3xFlag (human) [3] = target: GCN1-3xFlag (human) (UniProt Q92616); remark: listed apart in the source

binding (GCN1-3xFlag (human) [1]): binds
binding [2]: binds
Molecule: GCN2 (from UniProt Q9P2K8 1-1649) (enzyme)

binding (3xFlag-tagged RNF14): binds
Molecule: endogenous GCN1 (from UniProt Q92616 1-2671)

binding (3xFlag-tagged RNF14): binds
Molecule: higher-molecular weight, likely multi-ubiquitinated form of GCN1 (from UniProt Q92616 1-2671)

binding (GCN1-3xFlag (human) [3]): binds
B1: endogenous RNF14 (enzyme, UniProt Q9UBS8 1-474)
chain: MSSEDREAQEDELLALASIYDGDEFRKAESVQGGETRIYLDLPQNFKIFVSGNSNECLQNSGFEYTICFLPPLVLNFELPPDYPSSSPPSFTLSGKWLSPTQLSALCKHLDNLWEEHRGSVVLFAWMQFLKEETLAYLNIVSPFELKIGSQKKVQRRTAQASPNTELDFGGAAGSDVDQEEIVDERAVQDVESLSNLIQEILDFDQAQQIKCFNSKLFLCSICFCEKLGSECMYFLECRHVYCKACLKDYFEIQIRDGQVQCLNCPEPKCPSVATPGQVKELVEAELFARYDRLLLQSSLDLMADVVYCPRPCCQLPVMQEPGCTMGICSSCNFAFCTLCRLTYHGVSPCKVTAEKLMDLRNEYLQADEANKRLLDQRYGKRVIQKALEEMESKEWLEKNSKSCPCCGTPIEKLDGCNKMTCTGCMQYFCWICMGSLSRANPYKHFNDPGSPCFNRLFYAVDVDDDIWEDEVED
